In patent publication US20150313927A1, “AN EDIBLE COMPOSITION COMPRISING RESVERATROL AND FLAVONOID MONOGLUCOSIDE” (Conopco, Inc., d/b/a UNILEVER, priority 2012, published 2015):
At least one structure is not confirmed: it was looked up by name or label, or the drawing left a doubt. Some results were stated once for a whole list of compounds, not compound by compound.

By UniProt entry, the sequences of proteins in these tests, tags left out. Residues count along the entry.
UniProt P09848, 869-1927: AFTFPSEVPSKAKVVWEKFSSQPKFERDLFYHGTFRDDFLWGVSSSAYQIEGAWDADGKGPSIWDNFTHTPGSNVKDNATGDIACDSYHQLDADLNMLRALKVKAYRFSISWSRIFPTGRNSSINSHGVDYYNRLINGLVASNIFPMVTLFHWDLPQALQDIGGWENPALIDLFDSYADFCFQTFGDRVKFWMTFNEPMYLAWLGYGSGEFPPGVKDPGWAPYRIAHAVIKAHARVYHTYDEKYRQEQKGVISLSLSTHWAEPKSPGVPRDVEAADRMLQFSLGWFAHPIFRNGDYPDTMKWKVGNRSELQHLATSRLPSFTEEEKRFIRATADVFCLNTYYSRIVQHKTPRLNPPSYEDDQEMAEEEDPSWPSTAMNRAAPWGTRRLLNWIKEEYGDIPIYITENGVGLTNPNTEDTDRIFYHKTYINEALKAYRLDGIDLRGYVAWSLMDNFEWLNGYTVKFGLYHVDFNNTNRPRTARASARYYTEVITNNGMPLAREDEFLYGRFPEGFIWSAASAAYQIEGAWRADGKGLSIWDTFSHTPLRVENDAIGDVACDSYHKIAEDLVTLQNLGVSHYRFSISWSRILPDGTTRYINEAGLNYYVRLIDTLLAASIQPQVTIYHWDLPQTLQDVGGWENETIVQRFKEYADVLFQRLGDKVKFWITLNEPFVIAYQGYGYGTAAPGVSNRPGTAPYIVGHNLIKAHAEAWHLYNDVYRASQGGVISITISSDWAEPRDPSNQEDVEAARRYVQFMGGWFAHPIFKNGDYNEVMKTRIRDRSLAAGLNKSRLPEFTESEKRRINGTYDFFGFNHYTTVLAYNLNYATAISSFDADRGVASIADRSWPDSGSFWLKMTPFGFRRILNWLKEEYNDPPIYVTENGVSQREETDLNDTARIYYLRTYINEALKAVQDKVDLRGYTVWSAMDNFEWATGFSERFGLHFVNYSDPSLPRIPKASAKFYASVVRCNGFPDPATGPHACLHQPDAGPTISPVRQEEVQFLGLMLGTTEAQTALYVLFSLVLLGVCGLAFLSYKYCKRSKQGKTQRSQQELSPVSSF

How the values were obtained:
[1] = biological target: T1, Human Lactase Phloridzin Hydrolase (hLPH) (Homo sapiens, UniProt P09848); assay: hLPH enzyme assay (glucoside hydrolysis by LPH extract); format: in vitro ADME; settings: resistance to LPH hydrolysis relative to quercetin-4-glucoside (Q4G)
T1 construct: at confluence for 21 days prior to extraction with a Novagen ProteoExtract™ trans-membrane Protein Extraction kit; endogenous in cells; host or cells: Caco-2 cells (ATCC), 21 days at confluence; membrane protein extract desalted over G-25 Sephadex
Procedure: Extracts were stored at −80° C. in 50 ul aliquots. Prior to use extracts were semi-purified, removing low molecular weight interfering components by passing through a small G-25 Sephadex 50-100 μl spin-column (Roche or ThermoFisher Scientific). 10 μl of semi-purified LPH extract was added to 90 μl of glucoside (1.0 mM final concentration) in 0.1 M maleate (Sigma) buffer, pH 6.0 and incubated for 60 minutes at 37° C. The reaction was terminated by addition of 200 μl 2M Tris (Sigma), pH 8.0. […] This allowed a full recovery of glucose which was measured using the Amplex® Red Glucose/Glucose Oxidase Assay. […] Fluorescence was read on a SpectraMax Gemini EM SN plate reader (Molecular Devices) (excitation. 530 nm and emission at 590 nm).

SGLT1 = assay: Glucose transport inhibitor cell screening assay, 5 mM D-glucose for 15 minutes; settings: based on inhibition at 5 mM and 25 mM D-glucose

O=c1cc(-c2ccc(O)cc2)oc2c([C@@H]3O[C@H](CO)[C@@H](O)[C@H](O)[C@H]3O)c(O)cc(O)c12 [Apigenin-8-C-glucoside]
Resistance to hydrolysis - % Q4G [1]: at least 20%

O=c1c(-c2ccc(O)cc2)coc2c([C@@H]3O[C@H](CO)[C@@H](O)[C@H](O)[C@H]3O)c(O)ccc12 [Daidzein-8-C-glucoside]
Resistance to hydrolysis - % Q4G [1]: at least 20%

O=C1CC(c2ccc(O)cc2)Oc2cc(O[C@@H]3O[C@H](CO)[C@@H](O)[C@H](O)[C@H]3O)cc(O)c21 (some centres unmarked) [Naringenin-7-O-glucoside]
Resistance to hydrolysis - % Q4G [1]: at least 20%

OC[C@H]1O[C@@H](Oc2cc3c(O)cc(O)cc3[o+]c2-c2ccc(O)cc2)[C@H](O)[C@@H](O)[C@@H]1O [Pelargonidin-3-glucoside]
Resistance to hydrolysis - % Q4G [1]: at least 20%

O=c1c(O)c(-c2ccc(O)cc2)oc2cc(O[C@@H]3O[C@H](CO)[C@@H](O)[C@H](O)[C@H]3O)cc(O)c12 [Kaempferol 7-O-glucoside]
Resistance to hydrolysis - % Q4G [1]: at least 20%

O=c1cc(-c2ccc(O)c(O)c2)oc2cc(O[C@@H]3O[C@H](CO)[C@@H](O)[C@H](O)[C@H]3O)cc(O)c12 [Luteolin-7-glucoside]
Resistance to hydrolysis - % Q4G [1]: at least 20%

COc1cc(-c2[o+]c3cc(O)cc(O)c3cc2O)cc(OC)c1O [Malvidin]
Class (assigned class of transporter inhibited) (SGLT1): None

Oc1cc(O)c2cc(O)c(-c3ccc(O)c(O)c3)[o+]c2c1 [Cyanidin]
Class (assigned class of transporter inhibited) (SGLT1): None
